Test results as given in the supplement of paper PMC10849652.
This is one part of the list.

The chains behind the UniProt entries cited, without tags or fusion partners. Where a name states a change or a piece, a line headed by the entry shows the natural chain unless it says otherwise.
UniProt Q96M27: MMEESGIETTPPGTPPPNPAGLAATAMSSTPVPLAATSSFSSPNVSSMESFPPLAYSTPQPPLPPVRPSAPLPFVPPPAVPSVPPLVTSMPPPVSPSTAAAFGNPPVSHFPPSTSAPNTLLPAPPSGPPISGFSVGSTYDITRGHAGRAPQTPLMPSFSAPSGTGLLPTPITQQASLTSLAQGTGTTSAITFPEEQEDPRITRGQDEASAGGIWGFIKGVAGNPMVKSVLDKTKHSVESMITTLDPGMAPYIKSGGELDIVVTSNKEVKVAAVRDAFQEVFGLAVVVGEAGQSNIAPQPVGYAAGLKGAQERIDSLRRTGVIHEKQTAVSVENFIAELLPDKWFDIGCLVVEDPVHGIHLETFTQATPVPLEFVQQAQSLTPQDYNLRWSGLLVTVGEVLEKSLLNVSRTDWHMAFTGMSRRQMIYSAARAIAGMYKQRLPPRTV
UniProt Q14289, whole entry, looked up: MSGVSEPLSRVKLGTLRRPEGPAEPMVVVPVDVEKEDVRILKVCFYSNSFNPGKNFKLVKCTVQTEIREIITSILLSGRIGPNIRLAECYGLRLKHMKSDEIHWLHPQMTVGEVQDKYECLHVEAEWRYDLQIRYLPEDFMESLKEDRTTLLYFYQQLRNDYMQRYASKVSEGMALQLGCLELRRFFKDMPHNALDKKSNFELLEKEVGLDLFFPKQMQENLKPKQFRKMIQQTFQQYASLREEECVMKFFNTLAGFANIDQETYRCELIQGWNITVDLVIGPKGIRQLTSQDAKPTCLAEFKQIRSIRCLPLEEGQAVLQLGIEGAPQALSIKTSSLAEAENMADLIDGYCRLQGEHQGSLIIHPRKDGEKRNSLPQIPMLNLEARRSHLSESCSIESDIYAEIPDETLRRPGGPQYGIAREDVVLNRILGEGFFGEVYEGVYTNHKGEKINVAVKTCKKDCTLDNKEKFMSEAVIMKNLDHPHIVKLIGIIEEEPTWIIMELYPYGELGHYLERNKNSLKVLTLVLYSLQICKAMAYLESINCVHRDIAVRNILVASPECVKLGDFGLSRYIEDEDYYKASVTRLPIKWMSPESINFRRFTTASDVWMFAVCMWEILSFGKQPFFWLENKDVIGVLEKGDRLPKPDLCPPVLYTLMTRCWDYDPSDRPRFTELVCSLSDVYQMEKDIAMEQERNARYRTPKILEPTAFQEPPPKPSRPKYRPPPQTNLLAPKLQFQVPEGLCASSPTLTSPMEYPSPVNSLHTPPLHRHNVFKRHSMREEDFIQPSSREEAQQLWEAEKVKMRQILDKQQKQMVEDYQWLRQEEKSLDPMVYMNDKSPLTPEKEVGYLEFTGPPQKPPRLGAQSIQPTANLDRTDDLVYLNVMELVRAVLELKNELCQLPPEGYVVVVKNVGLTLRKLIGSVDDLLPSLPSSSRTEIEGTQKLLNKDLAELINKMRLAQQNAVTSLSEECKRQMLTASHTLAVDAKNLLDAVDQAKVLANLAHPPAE
UniProt Q12974: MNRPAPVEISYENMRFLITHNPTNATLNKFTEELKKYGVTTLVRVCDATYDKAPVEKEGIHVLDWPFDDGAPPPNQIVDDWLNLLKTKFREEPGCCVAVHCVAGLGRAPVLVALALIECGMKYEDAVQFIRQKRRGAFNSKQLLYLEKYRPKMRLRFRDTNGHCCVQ
UniProt Q12913: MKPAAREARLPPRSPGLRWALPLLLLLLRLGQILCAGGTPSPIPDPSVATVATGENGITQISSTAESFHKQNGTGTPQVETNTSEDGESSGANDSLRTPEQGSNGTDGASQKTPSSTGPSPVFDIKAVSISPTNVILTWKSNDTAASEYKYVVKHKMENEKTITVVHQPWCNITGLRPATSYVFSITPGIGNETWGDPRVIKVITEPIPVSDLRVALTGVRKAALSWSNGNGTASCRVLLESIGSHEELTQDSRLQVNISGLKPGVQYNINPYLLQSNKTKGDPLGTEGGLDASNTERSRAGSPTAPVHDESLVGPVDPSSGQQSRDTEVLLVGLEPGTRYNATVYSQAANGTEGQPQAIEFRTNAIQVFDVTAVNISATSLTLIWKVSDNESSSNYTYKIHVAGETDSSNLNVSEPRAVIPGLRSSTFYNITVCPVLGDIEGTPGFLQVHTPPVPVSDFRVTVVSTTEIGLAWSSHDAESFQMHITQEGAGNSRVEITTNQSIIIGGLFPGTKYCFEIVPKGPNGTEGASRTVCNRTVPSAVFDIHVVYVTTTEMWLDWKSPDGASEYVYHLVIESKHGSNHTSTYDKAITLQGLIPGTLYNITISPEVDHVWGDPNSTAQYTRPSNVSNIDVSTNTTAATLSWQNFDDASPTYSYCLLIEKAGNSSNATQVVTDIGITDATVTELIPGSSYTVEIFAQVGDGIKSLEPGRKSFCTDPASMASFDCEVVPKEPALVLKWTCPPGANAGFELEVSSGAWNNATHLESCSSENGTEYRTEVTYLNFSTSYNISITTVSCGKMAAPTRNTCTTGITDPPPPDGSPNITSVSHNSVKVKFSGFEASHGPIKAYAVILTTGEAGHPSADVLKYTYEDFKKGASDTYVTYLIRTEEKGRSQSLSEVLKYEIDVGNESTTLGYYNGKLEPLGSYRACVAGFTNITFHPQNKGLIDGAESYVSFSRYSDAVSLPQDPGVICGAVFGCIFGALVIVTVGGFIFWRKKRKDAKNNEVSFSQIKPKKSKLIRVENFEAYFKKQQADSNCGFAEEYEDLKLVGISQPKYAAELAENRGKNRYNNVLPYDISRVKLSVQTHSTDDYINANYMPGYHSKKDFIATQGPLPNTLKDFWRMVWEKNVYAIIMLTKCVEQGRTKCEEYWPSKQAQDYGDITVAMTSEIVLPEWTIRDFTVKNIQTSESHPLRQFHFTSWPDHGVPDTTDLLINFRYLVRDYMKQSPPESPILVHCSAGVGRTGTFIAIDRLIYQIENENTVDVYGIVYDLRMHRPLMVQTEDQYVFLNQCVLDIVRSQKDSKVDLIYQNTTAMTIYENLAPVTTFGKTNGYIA
UniProt Q9UI38: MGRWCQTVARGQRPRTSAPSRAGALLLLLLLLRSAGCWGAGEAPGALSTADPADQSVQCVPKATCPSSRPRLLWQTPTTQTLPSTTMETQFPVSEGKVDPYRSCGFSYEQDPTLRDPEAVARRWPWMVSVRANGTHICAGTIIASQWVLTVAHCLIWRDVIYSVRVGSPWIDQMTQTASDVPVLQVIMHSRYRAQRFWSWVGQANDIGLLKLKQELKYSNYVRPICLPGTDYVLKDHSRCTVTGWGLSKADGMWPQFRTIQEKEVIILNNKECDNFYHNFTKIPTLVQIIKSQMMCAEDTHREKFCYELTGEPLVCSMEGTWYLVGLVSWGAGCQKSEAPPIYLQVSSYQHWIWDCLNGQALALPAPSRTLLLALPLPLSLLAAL
UniProt Q99952: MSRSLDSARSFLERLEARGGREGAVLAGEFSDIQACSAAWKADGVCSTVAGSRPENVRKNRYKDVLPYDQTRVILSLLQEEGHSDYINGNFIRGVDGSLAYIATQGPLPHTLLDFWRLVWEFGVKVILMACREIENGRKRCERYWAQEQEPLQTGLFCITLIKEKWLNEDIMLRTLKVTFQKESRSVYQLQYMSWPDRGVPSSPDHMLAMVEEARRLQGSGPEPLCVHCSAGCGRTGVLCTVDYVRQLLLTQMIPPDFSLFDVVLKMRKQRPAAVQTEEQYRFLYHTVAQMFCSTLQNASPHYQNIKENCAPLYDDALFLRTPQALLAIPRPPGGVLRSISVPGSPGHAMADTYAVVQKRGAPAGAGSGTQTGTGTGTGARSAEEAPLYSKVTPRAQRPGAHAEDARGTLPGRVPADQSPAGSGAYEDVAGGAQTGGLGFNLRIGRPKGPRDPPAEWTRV
UniProt O00232: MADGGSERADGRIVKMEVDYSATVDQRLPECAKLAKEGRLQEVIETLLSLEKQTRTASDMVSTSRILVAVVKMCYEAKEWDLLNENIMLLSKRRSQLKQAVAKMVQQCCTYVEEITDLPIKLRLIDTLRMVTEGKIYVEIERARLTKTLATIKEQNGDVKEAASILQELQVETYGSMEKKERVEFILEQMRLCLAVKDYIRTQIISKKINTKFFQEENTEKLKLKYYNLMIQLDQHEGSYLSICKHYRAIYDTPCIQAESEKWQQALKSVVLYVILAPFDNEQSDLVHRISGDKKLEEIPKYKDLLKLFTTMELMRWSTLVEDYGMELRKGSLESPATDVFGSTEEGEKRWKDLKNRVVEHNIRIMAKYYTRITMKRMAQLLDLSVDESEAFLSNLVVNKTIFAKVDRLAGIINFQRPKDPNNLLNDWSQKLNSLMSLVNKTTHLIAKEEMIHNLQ
UniProt P29350: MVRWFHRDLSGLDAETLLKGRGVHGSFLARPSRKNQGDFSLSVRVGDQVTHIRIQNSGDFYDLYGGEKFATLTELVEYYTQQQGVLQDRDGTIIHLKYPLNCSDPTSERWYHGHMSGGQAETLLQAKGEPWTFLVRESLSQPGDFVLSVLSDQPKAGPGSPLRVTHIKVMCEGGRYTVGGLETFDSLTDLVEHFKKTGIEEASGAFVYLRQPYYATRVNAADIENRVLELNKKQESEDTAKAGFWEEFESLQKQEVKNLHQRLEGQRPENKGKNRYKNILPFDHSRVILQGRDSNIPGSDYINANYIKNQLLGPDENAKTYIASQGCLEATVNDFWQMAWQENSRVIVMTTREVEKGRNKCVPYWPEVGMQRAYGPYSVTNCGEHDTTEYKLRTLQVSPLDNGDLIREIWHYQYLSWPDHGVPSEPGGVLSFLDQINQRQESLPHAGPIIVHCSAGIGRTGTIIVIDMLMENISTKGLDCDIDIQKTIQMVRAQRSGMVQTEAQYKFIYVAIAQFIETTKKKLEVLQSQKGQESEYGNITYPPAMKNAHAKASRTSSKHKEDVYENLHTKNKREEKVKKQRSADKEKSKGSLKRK
UniProt Q9NRG1: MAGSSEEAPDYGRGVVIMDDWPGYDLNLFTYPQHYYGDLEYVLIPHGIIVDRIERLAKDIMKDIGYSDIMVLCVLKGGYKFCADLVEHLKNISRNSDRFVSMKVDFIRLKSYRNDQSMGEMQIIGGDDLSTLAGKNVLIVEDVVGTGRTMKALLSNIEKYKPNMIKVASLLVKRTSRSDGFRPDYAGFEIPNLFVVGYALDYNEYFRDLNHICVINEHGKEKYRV
UniProt P28066: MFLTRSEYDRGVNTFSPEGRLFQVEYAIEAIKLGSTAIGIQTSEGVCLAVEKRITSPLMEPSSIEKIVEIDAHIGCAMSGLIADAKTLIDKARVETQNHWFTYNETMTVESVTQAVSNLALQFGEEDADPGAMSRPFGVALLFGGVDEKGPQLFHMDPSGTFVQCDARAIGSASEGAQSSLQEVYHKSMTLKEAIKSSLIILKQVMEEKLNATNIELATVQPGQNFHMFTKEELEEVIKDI
UniProt Q8WXF1: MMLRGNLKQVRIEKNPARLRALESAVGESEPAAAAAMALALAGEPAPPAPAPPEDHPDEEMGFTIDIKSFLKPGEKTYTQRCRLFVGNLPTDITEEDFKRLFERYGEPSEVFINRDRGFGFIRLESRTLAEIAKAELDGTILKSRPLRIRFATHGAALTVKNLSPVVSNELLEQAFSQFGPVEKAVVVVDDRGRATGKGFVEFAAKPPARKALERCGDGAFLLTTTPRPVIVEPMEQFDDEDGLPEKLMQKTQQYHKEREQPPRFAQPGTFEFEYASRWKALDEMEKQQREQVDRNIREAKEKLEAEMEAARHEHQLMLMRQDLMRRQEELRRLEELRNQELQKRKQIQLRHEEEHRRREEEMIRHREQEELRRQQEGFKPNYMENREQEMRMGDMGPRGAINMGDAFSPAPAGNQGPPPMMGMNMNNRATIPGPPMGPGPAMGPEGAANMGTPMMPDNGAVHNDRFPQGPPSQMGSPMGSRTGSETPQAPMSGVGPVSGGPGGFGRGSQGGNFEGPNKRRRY
UniProt Q8WUK0: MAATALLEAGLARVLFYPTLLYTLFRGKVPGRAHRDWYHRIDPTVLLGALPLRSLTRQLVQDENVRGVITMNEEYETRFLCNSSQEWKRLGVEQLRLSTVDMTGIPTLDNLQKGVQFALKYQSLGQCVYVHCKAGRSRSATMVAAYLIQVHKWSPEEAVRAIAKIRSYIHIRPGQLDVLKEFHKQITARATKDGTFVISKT
UniProt Q00577: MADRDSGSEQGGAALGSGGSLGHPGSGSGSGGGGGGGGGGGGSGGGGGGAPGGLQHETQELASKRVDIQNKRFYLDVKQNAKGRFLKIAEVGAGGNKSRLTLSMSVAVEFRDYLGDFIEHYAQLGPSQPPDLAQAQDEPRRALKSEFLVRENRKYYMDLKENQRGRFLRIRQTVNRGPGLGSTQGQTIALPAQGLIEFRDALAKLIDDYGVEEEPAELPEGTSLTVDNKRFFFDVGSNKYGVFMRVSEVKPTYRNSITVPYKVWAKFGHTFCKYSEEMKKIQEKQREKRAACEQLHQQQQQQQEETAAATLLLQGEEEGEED
UniProt P49721: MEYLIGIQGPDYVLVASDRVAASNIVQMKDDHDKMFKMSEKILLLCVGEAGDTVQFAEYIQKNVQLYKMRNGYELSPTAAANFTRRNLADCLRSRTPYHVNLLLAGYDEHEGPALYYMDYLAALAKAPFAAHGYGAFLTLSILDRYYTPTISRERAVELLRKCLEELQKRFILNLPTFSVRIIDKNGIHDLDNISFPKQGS

Legend:
Assay in all cases: log2 fold change, soluble protein after heating vs DMSO (PISA); higher = thermal stabilisation; K562 lysate, 10 uM; active = over 0.2 and 3.5 SD of the protein, either way, in both replicates (recomputed)
lapatinib = compound: CS(=O)(=O)CCNCc1ccc(-c2ccc3ncnc(Nc4ccc(OCc5cccc(F)c5)c(Cl)c4)c3c2)o1 [lapatinib]
Outline: (§1)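 K562 pellets were dounce-homogenised in PBS pH 7.4 containing 1 mM MgCl2, and the crude extract, at 1 mg/mL protein, was exposed to 10 μM compound for 30 min. Aliquots were heated for 3 min across 48°C-58°C, pooled, brought to 0.5% NP-40 at 4°C and spun at 21,000xg for 90 min, with the supernatant taken as soluble protein. TMTpro 16plex LC-MS/MS with equalised channel sums quantified that protein. Values are log-two fold changes in thermal stability relative to solvent controls, taken from duplicates.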

pictilisib = compound: CS(=O)(=O)N1CCN(Cc2cc3nc(-c4cccc5[nH]ncc45)nc(N4CCOCC4)c3s2)CC1 [pictilisib]
Outline: as §1

crizotinib = compound: C[C@@H](Oc1cc(-c2cnn(C3CCNCC3)c2)cnc1N)c1c(Cl)ccc(F)c1Cl [crizotinib]
Outline: as §1

[1] = compound: C[C@H](C1=CC=C(C=C1)C(=O)NC2=C3C=CNC3=NC=C2)N
Outline: as §1

duvelisib = compound: C[C@H](Nc1ncnc2nc[nH]c12)c1cc2cccc(Cl)c2c(=O)n1-c1ccccc1 [duvelisib]
Outline: as §1

gandotinib = compound: Cc1cc(Nc2cc(CN3CCOCC3)c3nc(C)c(Cc4ccc(Cl)cc4F)n3n2)n[nH]1 [gandotinib]
Outline: as §1

tozasertib = compound: Cc1cc(Nc2cc(N3CCN(C)CC3)nc(Sc3ccc(NC(=O)C4CC4)cc3)n2)n[nH]1 [tozasertib]
Outline: as §1

doramapimod = compound: Cc1ccc(-n2nc(C(C)(C)C)cc2NC(=O)Nc2ccc(OCCN3CCOCC3)c3ccccc23)cc1 [doramapimod]
Outline: as §1

bafetinib = compound: Cc1ccc(NC(=O)c2ccc(CN3CC[C@H](N(C)C)C3)c(C(F)(F)F)c2)cc1Nc1nccc(-c2cncnc2)n1 [bafetinib]
Outline: as §1

[2] = compound: Cc1cccc(CC(=O)N2CCc3c2ccc(-c2cn(C)c4ncnc(N)c24)c3F)n1
Outline: as §1

| Target | log2 fold change (lapatinib) | log2 fold change (pictilisib) | log2 fold change (crizotinib) | log2 fold change [1] | log2 fold change (duvelisib) | log2 fold change (gandotinib) | log2 fold change (tozasertib) | log2 fold change (doramapimod) | log2 fold change (bafetinib) | log2 fold change [2] |
| --- | --- | --- | --- | --- | --- | --- | --- | --- | --- | --- |
| PRRC1 (UniProt Q96M27) | inactive: 0.053 | inactive: -0.049 | inactive: 0.07 | inactive: -0.002 | inactive: 0.007 | inactive: 0.067 | inactive: 0.016 | inactive: -0.016 | inactive: -0.047 | inactive: 0.034 |
| PTK2B (UniProt Q14289) | inactive: -0.075 | inactive: -0.043 |  | inactive: -0.026 | inactive: -0.034 | active: 0.385 | inactive: 0.019 |  | inactive: 0.098 | inactive: -0.05 |
| PTP4A2 (UniProt Q12974) | inactive: -0.004 | inactive: 0.019 | inactive: 0.041 | inactive: 0.041 | inactive: -0.041 | inactive: -0.112 | inactive: 0 | inactive: 0.055 | inactive: -0.038 | inactive: -0.124 |
| PTPRJ (UniProt Q12913) | inactive: 0.043 | inactive: -0.09 | inactive: 0.054 | inactive: -0.206 |  | inactive: 0.003 | inactive: 0.025 | inactive: -0.242 | inactive: 0.112 | inactive: -0.014 |
| PRSS50 (UniProt Q9UI38) | inactive: -0.038 | inactive: -0.118 |  | inactive: -0.033 | inactive: -0.109 | inactive: -0.116 | inactive: 0.025 |  | inactive: 0 | inactive: 0.056 |
| PTPN18 (UniProt Q99952) | inactive: 0.113 | inactive: -0.299 | inactive: -0.017 |  | inactive: 0.01 |  | inactive: -0.08 | inactive: -0.031 | inactive: -0.094 |  |
| PSMD12 (UniProt O00232) | inactive: -0.026 | inactive: -0.014 | inactive: -0.005 | inactive: 0.022 | inactive: -0.008 | inactive: -0.069 | inactive: -0.009 | inactive: 0.012 | inactive: -0.02 | inactive: -0.025 |
| PTP4A1 (UniProt Q93096) | inactive: -0.002 | inactive: 0.008 | inactive: 0.09 | inactive: 0.133 | inactive: 0.023 | inactive: -0.031 | inactive: 0.001 | inactive: -0.009 | inactive: -0.042 | inactive: -0.055 |
| PTPN6 isoform 4 (UniProt P29350) | inactive: -0.227 | inactive: -0.058 | inactive: 0.02 | inactive: -0.038 | inactive: -0.013 | inactive: -0.28 | inactive: 0 | inactive: 0.015 | inactive: -0.278 | inactive: 0.135 |
| PUS1 (UniProt Q9Y606) | inactive: -0.042 | inactive: -0.058 | inactive: -0.062 | inactive: -0.006 | inactive: 0.008 | inactive: -0.033 | inactive: 0.012 | inactive: 0.006 | inactive: -0.047 | inactive: 0.027 |
| PRUNE2 isoform 3 (UniProt Q8WUY3) | inactive: 0.011 | inactive: 0.028 | inactive: 0.032 |  | inactive: -0.004 |  |  | inactive: -0.094 | inactive: 0.159 |  |
| PRTFDC1 (UniProt Q9NRG1) | inactive: -0.017 | inactive: 0.038 | inactive: 0.077 | inactive: 0.003 | inactive: -0.027 | inactive: 0.014 | inactive: 0.006 | inactive: -0.034 | inactive: 0.036 | inactive: -0.1 |
| PSMA5 (UniProt P28066) | inactive: -0.015 | inactive: 0.018 | inactive: -0.003 | inactive: -0.029 | inactive: 0.031 | inactive: 0.026 | inactive: -0.017 | inactive: -0.001 | inactive: 0 | inactive: 0.014 |
| PSPC1 (UniProt Q8WXF1) | inactive: 0.02 | inactive: -0.019 | inactive: 0.035 | inactive: 0.089 | inactive: -0.032 | inactive: -0.02 | inactive: -0.006 | inactive: -0.006 | inactive: 0.067 | inactive: -0.021 |
| PTPMT1 (UniProt Q8WUK0) | inactive: -0.019 | inactive: 0.043 | inactive: -0.192 | inactive: -0.13 | inactive: 0.018 | inactive: -0.228 | inactive: 0.176 | inactive: 0.004 | inactive: -0.141 | inactive: -0.132 |
| PURA (UniProt Q00577) | inactive: -0.007 | inactive: -0.002 | inactive: 0.009 | inactive: 0.206 | inactive: 0.026 | inactive: -0.157 | inactive: 0.015 | inactive: -0.019 | inactive: -0.001 | inactive: -0.074 |
| PSMB2 (UniProt P49721) | inactive: -0.021 | inactive: 0.011 | inactive: -0.012 | inactive: -0.017 | inactive: 0.028 | inactive: 0.003 | inactive: 0.024 | inactive: 0.006 | inactive: -0.017 | inactive: -0.008 |
| PSMD6 (UniProt Q15008) | inactive: 0.139 | inactive: -0.075 | inactive: -0.166 | inactive: 0 |  | inactive: -0.024 |  | inactive: 0.134 | inactive: 0.138 | inactive: 0.073 |

Two records picked at random from those above:

| Target | log2 fold change (lapatinib) | log2 fold change (pictilisib) | log2 fold change (crizotinib) | log2 fold change [1] | log2 fold change (duvelisib) | log2 fold change (gandotinib) | log2 fold change (tozasertib) | log2 fold change (doramapimod) | log2 fold change (bafetinib) | log2 fold change [2] |
| --- | --- | --- | --- | --- | --- | --- | --- | --- | --- | --- |
| PUS1 (UniProt Q9Y606) | inactive: -0.042 | inactive: -0.058 | inactive: -0.062 | inactive: -0.006 | inactive: 0.008 | inactive: -0.033 | inactive: 0.012 | inactive: 0.006 | inactive: -0.047 | inactive: 0.027 |
| PSMA5 (UniProt P28066) | inactive: -0.015 | inactive: 0.018 | inactive: -0.003 | inactive: -0.029 | inactive: 0.031 | inactive: 0.026 | inactive: -0.017 | inactive: -0.001 | inactive: 0 | inactive: 0.014 |
